For 21 compounds, survivor count and T/C results are on record in PubChem BioAssay AID328 (DTP/NCI, 2004).

The list does not hold the whole screen: it is rich in T/C values a quarter to a half above the control, in often repeated tests (any T/C) and in doses without a T/C. Further doses and runs are listed elsewhere. T/C is the treated group as % of the vehicle group. Some doses have a count of surviving animals in place of a T/C: the source holds a T/C of zero for them, seemingly a mark for toxic or unscored doses. Some doses without a T/C left all or most animals alive at the check, yet need not have been tolerated: the source hardly ever lists a survival T/C far under the control, and the zero likely stands for such cases as well. Counts of survivors are from the toxicity check (mostly the fifth day) where no day follows; animals may have died later. Schedule codes are those of the source, taken here to give the interval after Q, in days (D) or hours (H), and the number of doses after X. Some doses were run more than once; the values are given in rising order. Where survival is the endpoint, this PubChem deposit counts one and a half times the control or more as active, and values a quarter to a half above the control carry no call in these data; other NCI protocols may use other cut-offs. Some T/C values carry the count of animals alive at the toxicity check (mostly the fifth day); without a count, all were alive then.

This assay has as its system BDF1 mice, P388 leukemia ip, median survival T/C. Kind of assay: NCI In Vivo Anticancer Drug Screen. Data for tumor model P388 Leukemia (intraperitoneal) in B6D2F1 (BDF1) mice. Conditions: T/C endpoint: median survival time, higher T/C = longer survival. In a few lines:
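Each value expresses how treatment altered survival: treated-mouse outcome over vehicle-mouse outcome, both groups bearing the transplanted tumour.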

Setting [1] is: dose: 25.0 mg/kg/injection, schedule: Q01DX009 (ip), vehicle: saline.
[2] abbreviates: dose: 50.0 mg/kg/injection, schedule: Q01DX009 (ip), vehicle: saline.
[3] abbreviates: dose: 100.0 mg/kg/injection, schedule: Q01DX009 (ip), vehicle: saline.
[4] abbreviates: dose: 100.0 mg/kg/injection, schedule: Q04DX003 (ip), vehicle: saline with Tween-80.
[5] abbreviates: dose: 200.0 mg/kg/injection, schedule: Q01DX009 (ip), vehicle: saline with Tween-80.
The mark [6] stands for this setting: dose: 200.0 mg/kg/injection, schedule: Q04DX003 (ip), vehicle: saline with Tween-80.
[7] abbreviates: dose: 400.0 mg/kg/injection, schedule: Q04DX003 (ip), vehicle: saline with Tween-80.
The mark [8] stands for this setting: dose: 400.0 mg/kg/injection, schedule: Q01DX009 (ip), vehicle: saline with Tween-80.
Where [9] appears, read: dose: 50.0 mg/kg/injection, schedule: Q01DX009 (ip), vehicle: Klucel (hydroxypropylcellulose) (HPC).
Setting [10] is: dose: 200.0 mg/kg/injection, schedule: Q04DX003 (ip), vehicle: Klucel (hydroxypropylcellulose) (HPC).

On to `NNC(=O)c1ccncc1`, for which the survivor count under setting [1] is 6 of 6; the survivor count under setting [2] was 6 of 6; the survivor count under setting [3] is given as 6 of 6; the survivor count (dose: 200.0 mg/kg/injection, schedule: Q01DX009 (ip), vehicle: saline) is 3 of 6. Also, the T/C under setting [3] was 130 % of control.

`CC1CCC2CON(C(C)(C)C)C2C1` (centres undefined): the T/C under setting [4] was 125 % of control. Besides, the survivor count runs as follows: under setting [5], 1 of 6; under setting [6], 4 of 6; under setting [7], 0 of 6.

`Nc1nc2c(ccc3ccccc32)s1`: the T/C under setting [5] is 126 % of control.

As to `Nc1ccc(/C=C/c2ccnc3ccccc23)cc1`, the survivor count runs as follows: (dose: 50.0 mg/kg/injection, schedule: Q01DX009 (ip), vehicle: saline with Tween-80) 6 of 6; under setting [4], 6 of 6; under setting [6], 0 of 6; under setting [7], 0 of 6.

Consider `CN(C)CCCN1c2ccc(O)cc2Sc2ccc(Cl)cc21`, for which the survivor count is on record as 4 of 10 (dose: 50.0 mg/kg/injection, schedule: Q01DX009 (ip), vehicle: other) and 0 of 10 (dose: 100.0 mg/kg/injection, schedule: Q01DX009 (ip), vehicle: other).

Consider `CC(=O)OCC(OC(C)=O)C(OC(C)=O)C(OC(C)=O)C(C#N)OC(C)=O` (centres undefined), for which the T/C is 130 % of control (dose: 300.0 mg/kg/injection, schedule: Q01DX009 (ip), vehicle: saline with Tween-80) and 140 % of control under setting [8].

Consider `CS(C)=O.CS(C)=O.[Cl][Rh]([Cl])([Cl])[Cl]`, for which the T/C is, setting by setting: under setting [1], 130 % of control; under setting [2], 130 [5 of 6 alive] and 133 % of control. For the same compound, the survivor count (dose: 75.0 mg/kg/injection, schedule: Q01DX009 (ip), vehicle: saline) was 4 of 6 and 5 of 6.

As to `C1=CC2(OCCO2)C2CC=CC3(OCCO3)C2C1` (centres undefined), the T/C under setting [9] is 126 and 133 % of control; the T/C (dose: 75.0 mg/kg/injection, schedule: Q01DX009 (ip), vehicle: Klucel (hydroxypropylcellulose) (HPC)) is 145 % of control; the T/C (dose: 100.0 mg/kg/injection, schedule: Q01DX009 (ip), vehicle: Klucel (hydroxypropylcellulose) (HPC)) is 144 % of control.

Regarding `OCCCN1CCCCC1CO` (centres undefined), the T/C runs as follows: under setting [2], 135 % of control; under setting [3], 135 % of control.

Consider `N=c1ccn2c(n1)OC1C(O)C(CO)OC12` (centres undefined), for which the T/C reads like this: (dose: 39.0 mg/kg/injection, schedule: Q01DX009 (ip), vehicle: water, evaluated on day 7) 178 and 195 % of control; (dose: 39.0 mg/kg/injection, schedule: Q01DX009 (ip), vehicle: water, evaluated on day 62) 178 [7 of 8 alive] and 195 % of control; (dose: 65.0 mg/kg/injection, schedule: Q01DX009 (ip), vehicle: water, evaluated on day 7) 181 and 192 % of control; (dose: 65.0 mg/kg/injection, schedule: Q01DX009 (ip), vehicle: water, evaluated on day 62) 181 and 192 % of control; (dose: 108.0 mg/kg/injection, schedule: Q01DX009 (ip), vehicle: water, evaluated on day 7) 195 and 225 % of control; (dose: 108.0 mg/kg/injection, schedule: Q01DX009 (ip), vehicle: water, evaluated on day 62) 195 and 225 % of control. Besides, the T/C is 209 and 219 % of control (dose: 180.0 mg/kg/injection, schedule: Q01DX009 (ip), vehicle: water, evaluated on day 7); 209 and 219 % of control (dose: 180.0 mg/kg/injection, schedule: Q01DX009 (ip), vehicle: water, evaluated on day 62); 219 and 236 % of control (dose: 300.0 mg/kg/injection, schedule: Q01DX009 (ip), vehicle: water, evaluated on day 7); 219 and 236 % of control (dose: 300.0 mg/kg/injection, schedule: Q01DX009 (ip), vehicle: water, evaluated on day 62); 117 and 221 % of control (dose: 500.0 mg/kg/injection, schedule: Q01DX009 (ip), vehicle: water, evaluated on day 7); 221 % of control (dose: 500.0 mg/kg/injection, schedule: Q01DX009 (ip), vehicle: water, evaluated on day 62). Moreover, the survivor count (dose: 500.0 mg/kg/injection, schedule: Q01DX009 (ip), vehicle: water) is on record as 5 of 8.

For `CCCCCCCCCCCC(=O)CCCC`, where the note is “dose: 400.0 mg/kg/injection, schedule: Q01DX009 (ip), vehicle: other”, the survivor count is listed as 6 of 6.

As for `N#CC(C#N)=Cc1ccc(Cl)c(Cl)c1`, the survivor count under setting [10] is 4 of 6.

For the compound `CCN(CC)CCCC(C)Nc1ccnc2cc(Cl)ccc12` (centres undefined), the survivor count by setting is: (dose: 25.0 mg/kg/injection, schedule: Q01DX010 (ip), vehicle: saline) 6 of 6; (dose: 100.0 mg/kg/injection, schedule: Q01DX010 (ip), vehicle: saline) 5 of 6; (dose: 115.0 mg/kg/injection, schedule: Q01DX009 (ip), vehicle: saline) 2 of 6; (dose: 200.0 mg/kg/injection, schedule: Q01DX010 (ip), vehicle: saline) 0 of 6.

Regarding `O=C(Nc1cccc(C2=NCCN2)c1)c1ccc(C(=O)Nc2cccc(C3=NCCN3)c2)c(Cl)c1`, for the setting “dose: 8.0 mg/kg/injection, schedule: Q01DX010 (ip), vehicle: water”, the survivor count was 1 of 6.

In the case of `CO[C@H]1CC[C@@]2(C)C(=CC[C@H]3[C@@H]4C[C@H](O)C[C@@]4(C)CC[C@@H]32)C1`, the survivor count (dose: 50.0 mg/kg/injection, schedule: Q01DX010 (ip), vehicle: other) is recorded as 5 of 6.

For `C[C@@H]1CN(C(=O)CCOS(C)(=O)=O)[C@@H](C)CN1C(=O)CCOS(C)(=O)=O`, the T/C (dose: 25.0 mg/kg/injection, schedule: Q04DX003 (ip), vehicle: saline with Tween-80) is 145 % of control and the T/C under setting [4] is 140 % of control. Moreover, the survivor count under setting [8] is recorded as 6 of 6 and the survivor count (dose: 600.0 mg/kg/injection, schedule: Q04DX003 (ip), vehicle: saline with Tween-80) is 5 of 5.

Turning to `CCCCNC1(C#N)CCN(Cc2ccccc2)CC1`, the survivor count under setting [9] was 5 of 6; the survivor count (dose: 50.0 mg/kg/injection, schedule: Q04DX003 (ip), vehicle: Klucel (hydroxypropylcellulose) (HPC)) was 6 of 6; the survivor count (dose: 100.0 mg/kg/injection, schedule: Q04DX003 (ip), vehicle: Klucel (hydroxypropylcellulose) (HPC)) was 0 of 6.

On to `Cc1ccc(NCC(O)CN2CCOCC2)cc1` (centres undefined), for which the survivor count runs as follows: under setting [10], 0 of 6; (dose: 400.0 mg/kg/injection, schedule: Q04DX003 (ip), vehicle: Klucel (hydroxypropylcellulose) (HPC)) 0 of 6.

`Cc1cc(C(C)(CC(C)C)c2ccc(O)c(C)c2)ccc1O`: where the note is “dose: 400.0 mg/kg/injection, schedule: Q01DX009 (ip), vehicle: gum acacia”, the survivor count is recorded as 0 of 6.

For `O=S(=O)(O)N(O)c1ccccc1`, the survivor count (dose: 100.0 mg/kg/injection, schedule: Q01DX001 (ip), vehicle: saline with Tween-80) is 6 of 6.

Consider `CN(C)c1ccc(/C=C/c2ccnc3c(O)ccc(O)c23)cc1`, for which, under setting [5], the survivor count is reported as 6 of 6.
